{"source": "paper PMC9681213", "binders": {"B1": {"name": "SlPR1 without the signal peptide (ΔSPSlPR1), two-hybrid prey (protein, UniProt P04284 25-159)", "chain": "QNSPQDYLAVHNDARAQVGVGPMSWDANLASRAQNYANSRAGDCNLIHSGAGENLAKGGGDFTGRAAVQLWVSERPSYNYATNQCVGGKKCRHYTQVVWRNSVRLGCGRARCNNGWWFISCNYDPVGNWIGQRPY"}}, "molecular_target": "FolSvp1 without the signal peptide (ΔSPFolSvp1), two-hybrid bait (Fusarium oxysporum f. sp. lycopersici)", "test": "two-hybrid; GAL4-based, pairs co-transformed into Y2HGold: bait in pGBKT7, prey in pGADT7; growth on DDO and QDO/A (125 ng/ml AbA); all constructs without the predicted signal peptide", "note": "These are yes or no findings as the source states them, for the method shown. Binding can be weak; no strength is given.", "data": [{"binder": "B1", "values": [{"measurement": "binding", "result": "binds"}]}]}
